The record followed here is PubChem BioAssay AID328 (DTP/NCI, 2004).

The assay relates to BDF1 mice, P388 leukemia ip, median survival T/C. The assay is described as follows: NCI In Vivo Anticancer Drug Screen. Data for tumor model P388 Leukemia (intraperitoneal) in B6D2F1 (BDF1) mice. The following applies: T/C endpoint: median survival time, higher T/C = longer survival. The method, boiled down:
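Read-out is survival of treated animals expressed relative to the vehicle group, as a T/C ratio.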

Setting [1] is: dose: 400.0 mg/kg/injection, schedule: Q04DX003 (ip), vehicle: saline.
The mark [2] stands for this setting: dose: 50.0 mg/kg/injection, schedule: Q01DX009 (ip), vehicle: saline with Tween-80.
Setting [3] is: dose: 100.0 mg/kg/injection, schedule: Q01DX009 (ip), vehicle: saline with Tween-80.
Setting [4] is: dose: 200.0 mg/kg/injection, schedule: Q01DX009 (ip), vehicle: saline with Tween-80.
The mark [5] stands for this setting: dose: 0.12 mg/kg/injection, schedule: Q01DX009 (ip), vehicle: saline.
Setting [6] is: dose: 400.0 mg/kg/injection, schedule: Q01DX009 (ip), vehicle: saline with Tween-80.
The mark [7] stands for this setting: dose: 100.0 mg/kg/injection, schedule: Q01DX009 (ip), vehicle: saline.

Molecules are shown by their SMILES. The list does not hold the whole screen: it gathers tests that were run many times, whatever their T/C, doses with no T/C, and many T/C values between a quarter and a half above the control. Further doses and runs are listed elsewhere. T/C: endpoint of the treated group in % of that of the vehicle group. Some doses have a count of surviving animals in place of a T/C: the source files T/C as zero there, which appears to mark a toxic dose or a test without result, not a measured value. Some survivor counts are full or nearly so, which does not show that the dose was tolerated: survival well below the control is almost never listed, so the zero probably covers shortened survival too. Survivors were counted at the toxicity check, usually on the fifth day, unless a day is given; later deaths do not show. Schedule codes are those of the source, taken here to give the interval after Q, in days (D) or hours (H), and the number of doses after X. For survival time, this PubChem deposit counts one and a half times the control or more as active, and values a quarter to a half above the control carry no call in these data; other NCI protocols may use other cut-offs. Some T/C values carry the count of animals alive at the toxicity check (mostly the fifth day); where none is given, no animal had died by that day.

Take `Cc1ccc(/C=C2\CC(C)(C)c3ccccc3C2=O)cc1`: the survivor count (dose: 200.0 mg/kg/injection, schedule: Q01DX009 (ip), vehicle: Klucel (hydroxypropylcellulose) (HPC)) was 6 of 6.
Turning to `CN(Cc1ccccc1)c1ccc(/C=C/c2ccnc3ccccc23)cc1`, the survivor count (dose: 200.0 mg/kg/injection, schedule: Q01DX001 (ip), vehicle: saline with Tween-80) is given as 5 of 6.
Consider `CC(O)C(C)(O)C(=O)O` (stereo unspecified), for which the survivor count under setting [1] is on record as 3 of 6.
With `Cc1c(-c2ccc(C(=N)N)cc2)oc(-c2ccc(C(=N)N)cc2)c1C`, the T/C (dose: 6.25 mg/kg/injection, schedule: Q01DX009 (ip), vehicle: saline with Tween-80) is 127 % of control and the T/C (dose: 12.5 mg/kg/injection, schedule: Q01DX009 (ip), vehicle: saline with Tween-80) was 130 % of control. In addition, the survivor count is recorded as 6 of 6 (dose: 25.0 mg/kg/injection, schedule: Q01DX009 (ip), vehicle: saline with Tween-80); 0 of 6 under setting [2]; 0 of 6 under setting [3]; 0 of 6 under setting [4].
Turning to `O=C(Oc1ccccc1)c1cc(O)c(O)c(O)c1`, under “dose: 200.0 mg/kg/injection, schedule: Q01DX005 (ip), vehicle: saline with Tween-80”, the T/C is 127 % of control.
On to `Cc1cnc2ncn(Cc3c[nH]c(=O)[nH]c3=O)c(=O)c2c1`, for which the T/C (dose: 50.0 mg/kg/injection, schedule: Q01DX001 (ip), vehicle: saline with Tween-80) was 126 % of control. Also, the survivor count (dose: 100.0 mg/kg/injection, schedule: Q01DX001 (ip), vehicle: saline with Tween-80) is reported as 0 of 6.
For the molecule `N=C(N)SCc1c2ccccc2c(CSC(=N)N)c2ccccc12`, the T/C (dose: 5.0 mg/kg/injection, schedule: Q01DX010 (ip), vehicle: saline) is 141 % of control and the T/C (dose: 40.0 mg/kg/injection, schedule: Q01DX010 (ip), vehicle: saline) is 145 % of control.
With `N#C/C1=C(\N)CCCOCCCOCCCOCCCOCCCOCC1`, the survivor count under setting [1] is listed as 0 of 6.
As for `C=CC12COC(=O)C(=C)C1C(O)C(C(=C)C(=O)OC)C(O)C2` (stereo unspecified), the T/C (dose: 4.0 mg/kg/injection, schedule: Q01DX010 (ip), vehicle: steroid suspending solution) is 140 % of control; the T/C (dose: 6.0 mg/kg/injection, schedule: Q01DX010 (ip), vehicle: steroid suspending solution) is 131 % of control [5 of 6 alive]; the T/C (dose: 8.0 mg/kg/injection, schedule: Q01DX010 (ip), vehicle: steroid suspending solution) was 131 % of control.
As for `Cc1cc(=O)c2cccc(C)c2[nH]1`, the survivor count (dose: 400.0 mg/kg/injection, schedule: Q04DX003 (ip), vehicle: Klucel (hydroxypropylcellulose) (HPC)) is recorded as 4 of 6.
For the molecule `CCOC(=O)C(C(=O)OCC)C(=O)c1cc(-c2ccc(Cl)c(Cl)c2)nc2c(Cl)cc(Cl)cc12`, under “dose: 100.0 mg/kg/injection, schedule: Q01DX009 (ip), vehicle: Klucel (hydroxypropylcellulose) (HPC)”, the survivor count is reported as 6 of 6.
As for `Nc1ccc(CCc2ccc(Cl)cc2S(=O)(=O)F)c(Cl)c1`, the survivor count (dose: 400.0 mg/kg/injection, schedule: Q01DX009 (ip), vehicle: saline) is recorded as 4 of 6.
Take `COc1ccc(CN(C(C)=O)c2cc(C)c([N+](=O)[O-])cc2OC)cc1OC`: the survivor count (dose: 100.0 mg/kg/injection, schedule: Q04DX003 (ip), vehicle: saline) is on record as 6 of 6.
In the case of `c1ccc(-c2nc3ccccc3nc2-c2ccc(-c3nc4ccccc4nc3-c3ccccc3)cc2)cc1`, the survivor count is, setting by setting: under setting [2], 6 of 6; under setting [3], 5 of 6; under setting [4], 6 of 6.
In the case of `N#C[C@@H]1C2C=CC(CC2)[C@H]1C#N`, the survivor count was 3 of 6 (dose: 10.0 mg/kg/injection, schedule: Q04DX003 (ip), vehicle: saline with Tween-80) and 0 of 6 (dose: 20.0 mg/kg/injection, schedule: Q04DX003 (ip), vehicle: saline with Tween-80).
Take `CCC[N+](C)(C)CCCCOCCCC[N+](C)(C)CCC`: the survivor count (dose: 25.0 mg/kg/injection, schedule: Q04DX003 (ip), vehicle: saline) is 0 of 6.
Take `O=C1NC(=O)C(Cc2ccccc2)(c2ccccc2)N1` (stereo unspecified): the survivor count (dose: 300.0 mg/kg/injection, schedule: Q01DX009 (ip), vehicle: saline with Tween-80) was 1 of 6.
Consider `CC(=O)CC(C)=O.CC(=O)CC(C)=O.Cc1c[nH]cn1.O=N[O-].[Co]`, for which the survivor count (dose: 400.0 mg/kg/injection, schedule: Q04DX002 (ip), vehicle: saline with Tween-80) is reported as 5 of 6.
As for `Cc1cc(N(CCO)CCO)c2cc3ccc4cccc5ccc(c2n1)c3c45`, the survivor count by setting is: (dose: 200.0 mg/kg/injection, schedule: Q04DX003 (ip), vehicle: saline with Tween-80) 6 of 6; (dose: 400.0 mg/kg/injection, schedule: Q04DX003 (ip), vehicle: saline with Tween-80) 1 of 6.
In the case of `CC(=O)OC(C)(C)/C=C/C(=O)[C@](C)(O)[C@H]1[C@H](O)C[C@@]2(C)[C@@H]3CC=C4[C@@H](C[C@H](O)C(=O)C4(C)C)[C@]3(C)C(=O)C[C@]12C`, the T/C by setting is: (dose: 0.03 mg/kg/injection, schedule: Q01DX009 (ip), vehicle: saline) 125 % of control; (dose: 0.04 mg/kg/injection, schedule: Q01DX009 (ip), vehicle: saline) 130 % of control; under setting [5], 125 % of control; (dose: 0.37 mg/kg/injection, schedule: Q01DX009 (ip), vehicle: saline) 135 % of control; (dose: 0.75 mg/kg/injection, schedule: Q01DX009 (ip), vehicle: saline) 135 % of control; (dose: 1.0 mg/kg/injection, schedule: Q01DX010 (ip), vehicle: carboxymethylcellulose (CMC)) 127 % of control. Moreover, the T/C (dose: 1.5 mg/kg/injection, schedule: Q01DX009 (ip), vehicle: saline) was 130 % of control. The survivor count is, setting by setting: (dose: 0.07 mg/kg/injection, schedule: Q01DX009 (ip), vehicle: saline) 6 of 6; under setting [5], 5 of 6; (dose: 0.18 mg/kg/injection, schedule: Q01DX009 (ip), vehicle: saline) 3 of 6; (dose: 0.25 mg/kg/injection, schedule: Q01DX009 (ip), vehicle: saline) 1 of 6; (dose: 0.36 mg/kg/injection, schedule: Q04DX003 (ip), vehicle: saline) 3 of 6; (dose: 0.5 mg/kg/injection, schedule: Q01DX009 (ip), vehicle: saline) 0 of 6. In addition, the survivor count (dose: 2.0 mg/kg/injection, schedule: Q01DX010 (ip), vehicle: carboxymethylcellulose (CMC)) is listed as 0 of 6 and the survivor count (dose: 3.0 mg/kg/injection, schedule: Q01DX010 (ip), vehicle: carboxymethylcellulose (CMC)) was 2 of 6.
On to `CC(=O)[C@H]1CC[C@H]2[C@@H]3CCC4=CC(=O)[C@H](C)C[C@]4(C)[C@@]3(F)[C@@H](O)C[C@]12C`, for which the survivor count reads like this: under setting [4], 4 of 6; under setting [6], 5 of 6.
On to `CCc1cc(O)c(Cl)c(C)c1Cl`, for which the survivor count (dose: 200.0 mg/kg/injection, schedule: Q01DX009 (ip), vehicle: gum acacia) is reported as 6 of 6.
For `O=S(=O)(O)CCO`, the survivor count under setting [7] is 6 of 6.
Take `Cn1cnc([N+](=O)[O-])c1Sc1nc(N)nc2c1ncn2C1CC(O)C(CO)O1` (stereo unspecified): the T/C runs as follows: (dose: 3.12 mg/kg/injection, schedule: Q01DX005 (ip), vehicle: Klucel (hydroxypropylcellulose) (HPC)) 135 % of control; (dose: 12.5 mg/kg/injection, schedule: Q01DX005 (ip), vehicle: Klucel (hydroxypropylcellulose) (HPC)) 148 % of control; (dose: 12.5 mg/kg/injection, schedule: Q01DX009 (ip), vehicle: saline) 136 % of control; (dose: 25.0 mg/kg/injection, schedule: Q01DX005 (ip), vehicle: Klucel (hydroxypropylcellulose) (HPC)) 145 % of control. Moreover, the survivor count is, setting by setting: (dose: 50.0 mg/kg/injection, schedule: Q01DX009 (ip), vehicle: saline) 6 of 6; under setting [7], 6 of 6; (dose: 200.0 mg/kg/injection, schedule: Q04DX003 (ip), vehicle: saline) 6 of 6; under setting [1], 6 of 6.
For `ClCCOCCCl`, the survivor count runs as follows: under setting [4], 0 of 6; under setting [6], 0 of 6.
